Values of other authors, collected in PMC8352719 (The Journal of General Physiology, 2021).

Tested on: intestinal longitudinal muscle
Conditions: ref Giagnoni et al., 1983; Mackerer et al., 1976; cited from earlier work

## CN(C)C(=O)C(CCN1CCC(O)(c2ccc(Cl)cc2)CC1)(c1ccccc1)c1ccccc1 [LOP, 4-[4-(4-chlorophenyl)-4-hydroxypiperidin-1-yl]-N,N-dimethyl-2,2-diphenylbutanamide]
  IC50 to inhibit contractions in intestinal longitudinal muscle: nanomolar range
